Assay results published in article PMC11996858, “Cathepsin K cleavage of angiopoietin-2 creates detrimental Tie2 antagonist fragments in sepsis” (The Journal of Clinical Investigation, 2025).
Results are given in words; binding and its absence hold for the method and conditions named. For part of these data: In cells and extracts the contact can be indirect. Some binding calls cover weakened binding; strength is not graded here.

Amino acid sequences for entries named in this document (tags omitted). A change or cut given only in a name is not applied to a line headed by its entry. Residues count along the entry.
UniProt O15123: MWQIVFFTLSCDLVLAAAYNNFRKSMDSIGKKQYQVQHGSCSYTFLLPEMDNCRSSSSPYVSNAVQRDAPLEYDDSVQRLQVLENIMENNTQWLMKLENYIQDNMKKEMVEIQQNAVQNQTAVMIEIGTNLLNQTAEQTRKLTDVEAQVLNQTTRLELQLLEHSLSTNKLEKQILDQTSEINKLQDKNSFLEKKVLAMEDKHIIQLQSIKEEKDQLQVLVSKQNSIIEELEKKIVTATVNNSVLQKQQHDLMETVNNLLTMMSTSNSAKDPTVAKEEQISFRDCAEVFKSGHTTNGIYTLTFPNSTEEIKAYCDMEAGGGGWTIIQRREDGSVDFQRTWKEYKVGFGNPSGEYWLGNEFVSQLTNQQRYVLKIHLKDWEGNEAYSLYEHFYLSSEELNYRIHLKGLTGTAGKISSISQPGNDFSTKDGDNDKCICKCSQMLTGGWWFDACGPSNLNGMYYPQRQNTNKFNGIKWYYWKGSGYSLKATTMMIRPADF
UniProt Q02763, residues 23-748: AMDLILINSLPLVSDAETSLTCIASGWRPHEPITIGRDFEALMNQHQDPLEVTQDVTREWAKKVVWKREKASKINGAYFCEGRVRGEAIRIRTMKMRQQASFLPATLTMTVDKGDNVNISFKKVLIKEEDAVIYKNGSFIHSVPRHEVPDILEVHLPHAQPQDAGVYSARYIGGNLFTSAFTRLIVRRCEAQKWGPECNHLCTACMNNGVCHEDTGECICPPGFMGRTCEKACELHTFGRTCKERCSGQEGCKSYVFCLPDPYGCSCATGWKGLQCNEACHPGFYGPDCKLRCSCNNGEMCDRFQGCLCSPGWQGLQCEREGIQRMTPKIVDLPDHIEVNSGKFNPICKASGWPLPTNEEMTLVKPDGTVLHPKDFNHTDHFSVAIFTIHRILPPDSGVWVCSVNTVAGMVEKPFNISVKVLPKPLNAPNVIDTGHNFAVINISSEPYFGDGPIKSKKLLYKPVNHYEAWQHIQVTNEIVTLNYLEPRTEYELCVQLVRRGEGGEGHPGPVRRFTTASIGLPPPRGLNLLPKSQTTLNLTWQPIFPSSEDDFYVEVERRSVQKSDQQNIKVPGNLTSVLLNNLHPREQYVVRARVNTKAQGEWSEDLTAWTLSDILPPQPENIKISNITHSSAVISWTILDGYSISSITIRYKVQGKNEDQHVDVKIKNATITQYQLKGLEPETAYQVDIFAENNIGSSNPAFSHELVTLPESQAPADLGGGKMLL

Key:
[1] = target: cANGPT2_(25), cleavage product of recombinant ANGPT2 incubated with CM-Mq^LPS (human) (UniProt O15123); experiment: non-reducing SDS-PAGE with Western blot; recombinant ANGPT2 incubated with CM-Mq^Veh or CM-Mq^LPS (serum-free conditioned media of RAW264.7 cells), then SDS-PAGE under nonreducing conditions against reduced conditions (10% beta-mercaptoethanol) and Western analysis for ANGPT2; both purified
Tie2-Fc = Tie2-Fc (UniProt Q02763); experiment: pull-down; Tie2-Fc as bait; details only in Supplemental Figure 5 and Supplemental Methods (not shown)

Substance: cANGPT2_(25), cleavage product of recombinant ANGPT2 incubated with CM-Mq^LPS (from UniProt O15123 253-496) (domain or fragment)
- binding [1]: no binding

Substance: recombinant cANGPT2_(25), ANGPT2 (253E-496F) (from UniProt O15123 253-496) (domain or fragment)
- binding (Tie2-Fc): binds

Substance: recombinant cANGPT2_(50), ANGPT2 (55S-496F) (from UniProt O15123 55-496) (domain or fragment)
- binding (Tie2-Fc): binds
